{"source": "patent US9765115B2", "about": "“Inhibitors of metastasis, methods of generating such inhibitors and their therapeutic applications” (Board of Supervisors of Louisiana State University acting …, priority 2011, dated 2017)", "target": "T1, CTR-ZO-1 interaction (Homo sapiens, UniProt P30988+Q07157)", "T1 construct": "expressed in transfected cells; host or cells: PC-31 cells (methods paragraph says PC-3), Lipofectamine, transient 36 h", "assay": "Acceptor photobleaching FRET microscopy, CTR-CFP:ZO-1-YFP in live PC-31 cells", "assay_type": "cell-based", "details": "absence or presence of forskolin", "note": "At least one compound was matched to its structure with a doubt left.", "data": [{"compound": "C=C[C@@]1(C)CC(=O)[C@]2(O)[C@@]3(C)[C@@H](O)CCC(C)(C)[C@@H]3[C@H](O)[C@H](OC(C)=O)[C@@]2(C)O1", "note": "[forskolin]", "values": [{"measurement": "CTR-ZO-1 FRET efficiency", "result": "2.2±0.1"}]}]}
